These are yes or no findings as the source states them, for the method shown. For part of these data: In cells and extracts the contact can be indirect. Some entries that bind do so weakly or less than the wild type. One block for each binder: values may come before it.
Assays:
[1] = biological target: T1, human macrophage migration inhibitory factor (MIF) (human) (UniProt P14174); test: co-immunoprecipitation from human urine with anti-MIF, Western blot for ceruloplasmin (bands of 135 and 64 kDa)
T1 sequence (looked up): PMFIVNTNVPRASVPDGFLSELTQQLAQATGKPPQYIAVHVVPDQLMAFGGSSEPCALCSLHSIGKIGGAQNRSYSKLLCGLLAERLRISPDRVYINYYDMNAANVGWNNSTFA

By UniProt entry, the sequences of proteins in these tests, tags left out. Residues count along the entry.
UniProt P30904, residues 2-115: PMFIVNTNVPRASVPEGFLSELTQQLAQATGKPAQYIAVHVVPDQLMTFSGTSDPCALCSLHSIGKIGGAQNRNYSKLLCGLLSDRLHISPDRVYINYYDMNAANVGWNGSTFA

[2] = biological target: rat macrophage migration inhibitory factor (MIF) (rat) (UniProt P30904); test: restatement of the co-immunoprecipitation result from rat intraluminal fluid
[3] = biological target: rat macrophage migration inhibitory factor (MIF) (rat) (UniProt P30904); test: immunoprecipitation of rat intraluminal fluid with anti-MIF, Western blot for α-1-I-3 (reducing NuPAGE)

binding [1]: binds
B1: Ceruloplasmin (protein, human, UniProt P00450 20-1065, looked up)
chain: KEKHYYIGIIETTWDYASDHGEKKLISVDTEHSNIYLQNGPDRIGRLYKKALYLQYTDETFRTTIEKPVWLGFLGPIIKAETGDKVYVHLKNLASRPYTFHSHGITYYKEHEGAIYPDNTTDFQRADDKVYPGEQYTYMLLATEEQSPGEGDGNCVTRIYHSHIDAPKDIASGLIGPLIICKKDSLDKEKEKHIDREFVVMFSVVDENFSWYLEDNIKTYCSEPEKVDKDNEDFQESNRMYSVNGYTFGSLPGLSMCAEDRVKWYLFGMGNEVDVHAAFFHGQALTNKNYRIDTINLFPATLFDAYMVAQNPGEWMLSCQNLNHLKAGLQAFFQVQECNKSSSKDNIRGKHVRHYYIAAEEIIWNYAPSGIDIFTKENLTAPGSDSAVFFEQGTTRIGGSYKKLVYREYTDASFTNRKERGPEEEHLGILGPVIWAEVGDTIRVTFHNKGAYPLSIEPIGVRFNKNNEGTYYSPNYNPQSRSVPPSASHVAPTETFTYEWTVPKEVGPTNADPVCLAKMYYSAVEPTKDIFTGLIGPMKICKKGSLHANGRQKDVDKEFYLFPTVFDENESLLLEDNIRMFTTAPDQVDKEDEDFQESNKMHSMNGFMYGNQPGLTMCKGDSVVWYLFSAGNEADVHGIYFSGNTYLWRGERRDTANLFPQTSLTLHMWPDTEGTFNVECLTTDHYTGGMKQKYTVNQCRRQSEDSTFYLGERTYYIAAVEVEWDYSPQREWEKELHHLQEQNVSNAFLDKGEFYIGSKYKKVVYRQYTDSTFRVPVERKAEEEHLGILGPQLHADVGDKVKIIFKNMATRPYSIHAHGVQTESSTVTPTLPGETLTYVWKIPERSGAGTEDSACIPWAYYSTVDQVKDLYSGLIGPLIVCRRPYLKVFNPRRKLEFALLFLVFDENESWYLDDNIKTYSDHPEKVNKDDEEFIESNKMHAINGRMFGNLQGLTMHVGDEVNWYLMGMGNEIDLHTVHFHGHSFQYKHRGVYSSDVFDIFPGTYQTLEMFPRTPGIWLLHCHVTDHIHAGMETTYTVLQNEDTKSG

binding [2]: binds
binding [3]: binds
B2: alpha-1-inhibitor-3 (α-1-I-3) (protein, rat, UniProt P14046 25-1477, looked up)
chain: LNGNSKYMVLVPSQLYTETPEKICLHLYHLNETVTVTASLISQRGTRKLFDELVVDKDLFHCVSFTIPRLPSSEEEESLDINIEGAKHKFSERRVVLVKNKESVVFVQTDKPMYKPGQSVKFRVVSMDKNLHPLNELFPLAYIEDPKMNRIMQWQDVKTENGLKQLSFSLSAEPIQGPYKIVILKQSGVKEEHSFTVMEFVLPRFGVDVKVPNAISVYDEIINVTACATYTYGKPVPGHVKISLCHGNPTFSSETKSGCKEEDSRLDNNGCSTQEVNITEFQLKENYLKMHQAFHVNATVTEEGTGSEFSGSGRIEVERTRNKFLFLKADSHFRHGIPFFVKVRLVDIKGDPIPNEQVLIKARDAGYTNATTTDQHGLAKFSIDTNGISDYSLNIKVYHKEESSCIHSSCTAERHAEAHHTAYAVYSLSKSYIYLDTEAGVLPCNQIHTVQAHFILKGQVLGVLQQIVFHYLVMAQGSILQTGNHTHQVEPGESQVQGNFALEIPVEFSMVPVAKMLIYTILPDGEVIADSVKFQVEKCLRNKVHLSFSPSQSLPASQTHMRVTASPQSLCGLRAVDQSVLLQKPEAELSPSLIYDLPGMQDSNFIASSNDPFEDEDYCLMYQPIAREKDVYRYVRETGLMAFTNLKIKLPTYCNTDYDMVPLAVPAVALDSSTDRGMYESLPVVAVKSPLPQEPPRKDPPPKDPVIETIRNYFPETWIWDLVTVNSSGVTELEMTVPDTITEWKAGALCLSNDTGLGLSSVASFQAFQPFFVELTMPYSVIRGEAFTLKATVLNYLPTSLPMAVLLEASPDFTAVPVENNQDSYCLGANGRHTSSWLVTPKSLGNVNFSVSAEARQSPGPCGSEVATVPETGRKDTVVKVLIVEPEGIKKEHTFSSLLCASDAELSETLSLLLPPTVVKDSARAHFSVMGDILSSAIKNTQNLIQMPYGCGEQNMVLFAPNIYVLKYLNETQQLTEKIKSKALGYLRAGYQRELNYKHKDGSYSAFGDHNGQGQGNTWLTAFVLKSFAQARAFIFIDESHITDAFTWLSKQQKDSGCFRSSGSLLNNAMKGGVDDEITLSAYITMALLESSLPDTDPVVSKALSCLESSWENIEQGGNGSFVYTKALMAYAFALAGNQEKRNEILKSLDKEAIKEDNSIHWERPQKPTKSEGYLYTPQASSAEVEMSAYVVLARLTAQPAPSPEDLALSMGTIKWLTKQQNSYGGFSSTQDTVVALDALSKYGAATFSKSQKTPSVTVQSSGSFSQKFQVDKSNRLLLQQVSLPYIPGNYTVSVSGEGCVYAQTTLRYNVPLEKQQPAFALKVQTVPLTCNNPKGQNSFQISLEISYMGSRPASNMVIADVKMLSGFIPLKPTVKKLERLGHVSRTEVTTNNVLLYLDQVTNQTLSFSFIIQQDIPVKNLQPAIVKVYDYYETDEVAFAEYSSPCSSDDQNV

From patent publication US20090275521A1
